According to article PMC5732788:
Numbering of substitutions follows the chain as printed. These are yes or no findings as the source states them, for the method shown. In cells and extracts the contact can be indirect. Some results given as binding are weak or reduced against the parent protein; the word gives no strength. For part of these data: Where a sequence is shown, tags or fusion partners need not be part of it.

Protein sequences, listed by entry. Tags and fused reporters are not part of them.
UniProt P67809: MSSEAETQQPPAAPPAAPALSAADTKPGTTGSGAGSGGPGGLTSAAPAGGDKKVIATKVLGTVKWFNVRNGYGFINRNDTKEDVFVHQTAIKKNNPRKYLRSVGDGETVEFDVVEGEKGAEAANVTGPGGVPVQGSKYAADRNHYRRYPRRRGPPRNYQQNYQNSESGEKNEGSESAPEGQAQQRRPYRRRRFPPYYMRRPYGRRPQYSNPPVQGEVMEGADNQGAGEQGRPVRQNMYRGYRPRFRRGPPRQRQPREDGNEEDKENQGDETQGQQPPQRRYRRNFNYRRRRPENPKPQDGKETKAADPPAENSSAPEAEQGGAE

B1: WAVE3 (protein, UniProt Q9UPY6 1-502)
chain: MPLVKRNIEPRHLCRGALPEGITSELECVTNSTLAAIIRQLSSLSKHAEDIFGELFNEANNFYIRANSLQDRIDRLAVKVTQLDSTVEEVSLQDINMKKAFKSSTVQDQQVVSKNSIPNPVADIYNQSDKPPPLNILTPYRDDKKDGLKFYTDPSYFFDLWKEKMLQDTEDKRKEKRRQKEQKRIDGTTREVKKVRKARNRRQEWNMMAYDKELRPDNRLSQSVYHGASSEGSLSPDTRSHASDVTDYSYPATPNHSLHPQPVTPSYAAGDVPPHGPASQAAEHEYRPPSASARHMALNRPQQPPPPPPPQAPEGSQASAPMAPADYGMLPAQIIEYYNPSGPPPPPPPPVIPSAQTAFVSPLQMPMQPPFPASASSTHAAPPHPPSTGLLVTAPPPPGPPPPPPGPPGPGSSLSSSPMHGPPVAEAKRQEPAQPPISDARSDLLAAIRMGIQLKKVQEQREQEAKREPVGNDVATILSRRIAVEYSDSDDDSEFDENDWSD

Columns and labels:
[1] = target: T1, GFP-tagged full-length WAVE3 (human) (UniProt Q9UPY6); assay: co-IP; lysates of WAVE3-deficient (W3-CRISPR-1) MDA-MB-231 cells transfected with GFP-fused WAVE3 constructs; precipitated with anti-GFP (GFP-nano-antibodies, 2 h at 4°C); immunoblot with anti-YB1
T1 sequence: B1 chain with M1L

[2] = target: T2, WAVE3 (human (endogenous in MDA-MB-231)) (UniProt Q9UPY6); assay: co-IP; MDA-MB-231 cell lysates immunoprecipitated with anti-WAVE3, anti-YB1 or control IgG; immunoblot for the other protein
T2 sequence: B1 chain

[3] = target: Y-box binding protein-1 (human (endogenous in MDA-MB-231)) (UniProt P67809); assay: as above

Molecule	binding [1]	binding [2]	binding [3]
Y-box binding protein-1 (from UniProt P67809 1-324)	binds	binds	
B1			binds
